Test results reported in publication PMC11078701.
These are yes or no findings as the source states them, for the method shown.

Target: Escherichia coli CpxA sensor domain (residues 31 to 163) (Escherichia coli) (UniProt P0AE82)
Assay: crystal structure; hanging drop vapor diffusion at room temperature (~21 °C); protein 21.1 mg/ml in 50 mM Hepes pH 7.0, 350 mM NaCl; reservoir 100 mM Tris-HCl pH 7.5, 20% v/v 2-methyl-2,4-pentanediol; two copies in the asymmetric unit; both purified

B1: Escherichia coli CpxA sensor domain (residues 31 to 163) (domain or fragment, UniProt P0AE82 31-163)
chain: DSRQMTELLDSEQRQGLMIEQHVEAELANDPPNDLMWWRRLFRAIDKWAPPGQRLLLVTTEGRVIGAERSEMQIIRNFIGQADNADHPQKKKYGRVELVGPFSVRDGEDNYQLYLIRPASSSQSDFINLLFDR
Question: B1 was tested. Which binding did it give?
Answer: The binding was “no binding”.
